Measured values as given in US10954200B1, “Anti-angiogenesis compound” (KING SAUD UNIVERSITY, priority 2019, dated 2021).

Assays:
Assay type in all cases: cell-based, human
[1] = tested on: MCF-7 cells; test: MTT cell viability assay, MCF-7; details: MCF-7, 48 h; read-out: IC50 value (μM) against MCF-7 cells, MTT assay
Method: (§1) Breast cancer cells (MCF-7), lung cancer cells (A549), Hela cells, and peripheral blood mononuclear cells (PBMC) were purchased from the National Center for Cell Sciences (NCCS), Pune, India. The cancer cells were maintained in Dulbecco's modified eagles medium (DMEM), supplemented with 2 mM 1-glutamine and balanced salt solution (BSS), adjusted to contain 1.5 g/L Na2CO3, 0.1 mM nonessential amino acids, 1 mM sodium pyruvate, 2 mM 1-glutamine, 1.5 g/L glucose, 10 mM (4-(2-hydroxyethyl)-1-piperazineethane sulfonic acid) (HEPES), and 10% fetal bovine serum (GIBCO, USA). Penicillin and streptomycin (100 IU/100 μg) were adjusted to 1 mL/L. The cells were maintained at 37° C. with 5% CO2 in a humidified CO2 incubator.
(§2) The inhibitory concentration (IC50) value was evaluated using an MTT [3-(4,5-dimethylthiazol-2-yl)-2,5-diphenyltetrazolium bromide] assay. Cancer cells were grown (1×10^4 cells/well) in a 96-well plate for 48 h to 75% confluence. The medium was replaced with fresh medium containing serially diluted synthesized compounds, and the cells were further incubated for 48 h. The culture medium was removed, and 100 μL of the MTT [3-(4,5-dimethylthiozol-2-yl)-3,5-diphenyl tetrazolium bromide] (Hi-Media, Mumbai, India) solution was added to each well and incubated at 37° C. for 4 h. […] The optical density was measured at 620 nm in an ELISA multiwell plate reader (Thermo Multiskan EX, USA). […]

[2] = tested on: Hela cells; test: Trypan blue dye exclusion assay, Hela; details: 48 h, read-out: IC50 value (μM) against Hela cells, Trypan blue assay
Method: as §1
(§3) The cytotoxic effects of synthesized compounds on various types of cancer cells were determined by trypan blue dye exclusion assay. The cultured cells were treated with the synthesized compounds and incubated for 48 h. After the incubation period, the cells were detached by 0.5% trypan-EDTA solution, harvested by centrifugation at 3000 rpm for 5 minutes and diluted in 1 ml of PBS. […] About 20 μl of cell suspensions were carefully and continuously filled in the haemocytometer chamber and viable cells were counted in 1×1 mm squares, four chambers and the average number of cells per square determined. Total viable cells were determined using the following formula, […]

[3] = tested on: A549 cells; test: MTT cell viability assay, A549; details: A549, 48 h; read-out: IC50 value (μM) against A549 cells, MTT assay
Method: as §1, §2

[4] = tested on: A549 cells; test: Trypan blue dye exclusion assay, A549; details: A549, 48 h; read-out: IC50 value (μM) against A549 cells, Trypan blue assay
Method: as §1, §3

[5] = tested on: Hela cells; test: MTT cell viability assay, Hela; details: 48 h, read-out: IC50 value (μM) against Hela cells, MTT assay
Method: as §1, §2

[6] = tested on: MCF-7 cells; test: Trypan blue dye exclusion assay, MCF-7; details: MCF-7, 48 h; read-out: IC50 value (μM) against MCF-7 cells, Trypan blue assay
Method: as §1, §3

Q: How did the IC50 [1] turn out when N.N.[Cl][Pt][Cl] [Cisplatin, reference compound] was run?
A: Its IC50 is 5.9 ± 0.5 µM.

Q: What about the IC50 [2] of the same compound?
A: The IC50 was 6.6 ± 0.2 µM.

Q: And the IC50 [3]?
A: Its IC50 is 6.5 ± 0.5 µM.

Q: And the IC50 [4]?
A: Its IC50 is 6.4 ± 1.8 µM.

Q: What about the IC50 [5] of the same compound?
A: The IC50 was 5.9 ± 1 µM.

Q: And the IC50 [6]?
A: The IC50 was 6.7 ± 0.5 µM.
